Record: PubChem BioAssay AID743121 (NCATS, 2013)

Purpose: 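Knock-downs that sensitise breast cancer cells to camptothecin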 (primary screen)
Cells: MDA-MB-231 cells, a human breast cancer line
Reagents: single siRNA against human genes, 20 nM siRNA (0.8 pmol per well)
Timing: 120 h (drug added 48 h after transfection, read 72 h later)
Conditions: camptothecin 20 nM (about EC30) for 72 h; vehicle 0.1% DMSO in parallel plates
Read-out: 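CellTiter-Glo ATP signal, scaled to control siRNA as percent viability; sensitisation given as log2 of untreated divided by camptothecin-treated viability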
Direction: log2 vehicle/camptothecin viability: higher = stronger sensitisation to camptothecin
Rule for the call: 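Active genes have an RSA gene-level p-value below 0.001, computed from the ratios of their separate siRNAs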
In all, the deposit lists about 26,000 reagents; shown is a random part of them. Of all reagents, 167 (0.63%) are marked active. 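Calls are per gene from RSA p-values that are not deposited; an individual active-marked siRNA can sensitise only weakly.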 The numbers tell different reagents against one gene apart. Further read-outs or replicates are left out here.

AMPD2 (GeneID 271) #1 — log2 vehicle/camptothecin viability = -0.65; call = inactive
AMPD2 (GeneID 271) #2 — log2 vehicle/camptothecin viability = -0.496; call = inactive
AMPD2 (GeneID 271) #3 — log2 vehicle/camptothecin viability = 0.783; call = inactive
AMPD2 (GeneID 271) #4 — log2 vehicle/camptothecin viability = 0.143; call = inactive
DUSP12 (GeneID 11266) #1 — log2 vehicle/camptothecin viability = 0.25; call = inactive
DUSP12 (GeneID 11266) #2 — log2 vehicle/camptothecin viability = -0.523; call = inactive
DUSP12 (GeneID 11266) #3 — log2 vehicle/camptothecin viability = -0.173; call = inactive
DUSP12 (GeneID 11266) #4 — log2 vehicle/camptothecin viability = -0.24; call = inactive
TNF (GeneID 7124) #1 — log2 vehicle/camptothecin viability = -0.577; call = inactive
TNF (GeneID 7124) #2 — log2 vehicle/camptothecin viability = -0.434; call = inactive
TNF (GeneID 7124) #3 — log2 vehicle/camptothecin viability = -0.108; call = inactive
TNF (GeneID 7124) #4 — log2 vehicle/camptothecin viability = -0.137; call = inactive
FAF1 (GeneID 11124) #1 — log2 vehicle/camptothecin viability = 0.0256; call = inactive
FAF1 (GeneID 11124) #2 — log2 vehicle/camptothecin viability = -0.401; call = inactive
FAF1 (GeneID 11124) #3 — log2 vehicle/camptothecin viability = -0.255; call = inactive
FAF1 (GeneID 11124) #4 — log2 vehicle/camptothecin viability = -0.173; call = inactive

Copied from the listing for reference:
AMPD2 (GeneID 271) #3 — log2 vehicle/camptothecin viability = 0.783; call = inactive
AMPD2 (GeneID 271) #4 — log2 vehicle/camptothecin viability = 0.143; call = inactive
